Paper PMC12040169 (PLOS Biology, 2025)
The other results are listed elsewhere or left out.

Each compound was assayed on T1, CTL2-GFP (C. trachomatis L2/434/Bu, GFP-expressing). Settings: bulk GFP, single well; 28.5 h, 10 µM; inhibitor.
T1 construct: L2/434/Bu, GFP-expressing
Set-up: species or system HeLa; Intracellular C. trachomatis growth in HeLa cells, bulk GFP fluorescence relative to DMSO

| Compound | % of control remaining [%] |
| --- | --- |
| c1ccc(Oc2cccc(OCCCN3CCCCC3)c2)cc1 [CBK261781] | 20.4013 |
| COc1ccc([C@@]23CC[C@H](NC(=O)Nc4cccc(C(F)(F)F)c4F)C[C@@H]2CN(C)C3)cc1OC [CBK063200A] | 100 |
| CCCN(CC1CCCO1)C(=O)c1cnn(-c2ccc(F)cc2)c1 (centres unmarked) [CBK283317] | 107.398 |
| COc1cccc(C(=O)NC(c2ccc(OC)c(OC)c2)c2cc(Cl)c3cccnc3c2O)c1 (centres unmarked) [CBK264048] | 115.593 |
| Cc1cc(O)ccc1Nc1cc(-c2cc3ccccc3s2)ncn1 [CBK091057] | 97.6362 |
| O=C(NCCNc1cnccn1)c1cccc(Cl)c1Cl [CBK305727] | 101.829 |
| c1ccc2c(c1)CCCN2Cc1ncc[nH]1 [CBK138332] | 153.038 |
| COc1c(C)cccc1C(=O)N1CCC(c2cc3cnccc3[nH]2)CC1 [CBK283460] | 135.228 |
| COC(=O)c1ccccc1NC(=O)CNC(=O)c1ccccc1Cl [CBK269113] | 144.568 |
| COc1cc(-c2ccc(NCCn3cc[nH]c3=O)nc2)cc(OC)c1OC [CBK036907] | 166.57 |
| CN(C)c1cccc(NC(=O)Nc2ncc(Br)c3cccnc23)c1 [CBK107633] | 119.538 |
| Brc1ccsc1-c1csc(-c2ccccc2)n1 [CBK019859] | 138.755 |
| CCOC(=O)C1=C(N)OC2=C(C(=O)CC(C)(C)C2)C1c1cc(OCC)ccc1OCC (centres unmarked) [CBK008699] | 141.669 |
| Cc1ccc2nc(SCCC(=O)O)cc(C)c2c1 [CBK286861] | 115.863 |
| O=C(c1cccs1)N1CCC(n2cnc3cccnc32)CC1 [CBK283938] | 117.972 |
| CC(NC1=NC(C)(C)Cc2ccccc21)C(=O)O (centres unmarked) [CBK262575] | 119.191 |
| Cc1ccc(S(=O)(=O)c2cc3c(=O)n4ccccc4nc3n(CCCN3CCOCC3)c2=N)cc1 [CBK265590] | 111.266 |
| COc1cc(Nc2nc(-c3cccc(NC(C)=O)c3)cn3ccnc23)cc(OC)c1OC [CBK038093] | 148.51 |
| CCC1(CC)Cc2ccccc2-c2nc(NN)n(Cc3ccccc3)c(=O)c21 [CBK263217] | 105.425 |
| CC(C(=O)Nc1ccc(S(N)(=O)=O)cc1)N1Cc2ccccc2C1=O (centres unmarked) [CBK307607] | 127.381 |
| Cc1ccc(-c2nc(Nc3ccc(F)cc3)sc2CC(=O)O)cc1 [CBK264286] | 100 |
| CCN1CCN(Cc2c(C(C)C)[nH]c3ncccc23)CC1 [CBK285343] | 137.516 |
| CC(C)Cc1cnc2c(c1SCc1ccc(F)cc1)c(=O)n(C)c(=O)n2C [CBK294409] | 142.096 |
| O=C(NC1CCN(C(=O)Cn2ccc3ccncc32)CC1)C1CC1 [CBK284731] | 78.1109 |
| CC(C)CCn1c(=O)c(C(=O)Nc2ccccc2S(N)(=O)=O)c(O)c2ccccc21 [CBK262294] | 107.271 |
| CCOC(=O)c1ccccc1NS(=O)(=O)c1cc(Cl)sc1Cl [CBK045448] | 105.675 |

In another format: entries from further up
Compound | % of control remaining [%]
CCCN(CC1CCCO1)C(=O)c1cnn(-c2ccc(F)cc2)c1 (centres unmarked) [CBK283317] | 107.398
Cc1ccc(S(=O)(=O)c2cc3c(=O)n4ccccc4nc3n(CCCN3CCOCC3)c2=N)cc1 [CBK265590] | 111.266

More structures

| Compound | % of control remaining [%] |
| --- | --- |
| CCc1nnc(CN(CC2CCCO2)C2CCC(C)CC2)n1C (centres unmarked) [CBK304475] | 125.873 |
| COc1cc(C=CC(=O)O)ccc1OCC(=O)NCC(C)C [CBK296721] | 131.258 |
| Cc1nsc2c1[C@H]1[C@H](O)[C@H](O)C[C@H]1C1(CCC1)N2 [CBK303258] | 131.426 |
| COc1cc2nc(NC(=O)c3ccccc3)sc2cc1OC [CBK287701] | 132.587 |
| C=CCOC(=O)C1=C(C)OC(N)=C(C(=O)OCc2ccccc2)C12C(=O)Nc1ccccc12 (centres unmarked) [CBK262527] | 101.061 |
| Cc1ocnc1C(=O)NCC1CCN(c2ccccc2F)C1 (centres unmarked) [CBK304671] | 92.6646 |
| CCN1CCN(c2c(Cl)cccc2NC(=O)c2ccc(-c3cccc([N+](=O)[O-])c3)o2)CC1 [CBK268596] | 135.705 |
| CSc1nc(NC(=O)C(C)c2ccccc2)cc(N2CCNCC2)n1 (centres unmarked) [CBK026742T] | 100 |
| O=c1[nH]c(=O)c2cc(S(=O)(=O)N3CCCC(CN4CCCC4)C3)ccc2[nH]1 (centres unmarked) [CBK286392] | 143.238 |
| CCS(=O)(=O)N1CCC(NC(=O)NC(C)c2ccccc2Cl)CC1 (centres unmarked) [CBK242304] | 122.656 |
| C=CCn1c(-c2sc(NC(=O)c3ccc(C)c(C)c3)nc2C)n[nH]c1=S [CBK295294] | 144.604 |
| Cc1cc(C)c(S(=O)(=O)Nc2nnc(C(F)(F)F)s2)c(C)c1 [CBK045507] | 135.71 |
| c1ccc(Oc2ccccc2-c2cc(N3CCN(c4ccccn4)CC3)ncn2)cc1 [CBK091083] | 167.796 |
| COCC(=O)N1CCC(c2cc3nc(C(F)(F)F)ccc3[nH]2)CC1 [CBK282185] | 109.493 |
| Cn1nccc1C(O)c1cc2n(n1)CCCN(C(=O)Cc1cccs1)C2 (centres unmarked) [CBK306930] | 122.837 |
| COc1cc(C(=O)O)ccc1OCC(=O)Nc1ccc(F)cc1 [CBK287101] | 130.352 |
| Cc1ccc(CN(CCCn2ccnc2)Cc2c[nH]cn2)s1 [CBK283136] | 106.18 |
| CCC1=NN2C(=N)/C(=C/c3ccc(OC)cc3)C(=O)N=C2S1 [CBK101905] | 127.46 |
| CSCCCNC(=O)c1cnn2c(C)c(Cc3ccccc3C)c(C)nc12 [CBK162028] | 117.126 |
| O=C(OCc1ccccc1)N1CCC2(CC1)CN(CCO)c1ccccc12 [CBK022627] | 144.242 |
| Cc1ccccc1-n1c(SC(C)C)nc2sc3c(c2c1=O)CC(C)(C)OC3 [CBK091874] | 143.571 |
| O=C(Nc1nnc(-c2ccco2)o1)c1ccccc1 [CBK287420] | 138.974 |
| COC(=O)C1CCCN1CC(=O)NCc1ccc(OCC(N)=O)cc1 (centres unmarked) [CBK304970] | 98.6366 |
| COc1cc(CNc2nnn[nH]2)cc(Br)c1OCc1ccc(Cl)cc1 [CBK300496] | 161.974 |
| Cc1cccc(-c2ncc(NC(=O)COc3ccc([N+](=O)[O-])cc3)nc2-c2cccnc2)c1 [CBK037096] | 142.811 |
| Cc1nc2c(c(=O)[nH]1)CCN(Cc1ccc(-c3ccccc3)cc1)C2 [CBK283970] | 122.102 |

| Compound | % of control remaining [%] |
| --- | --- |
| Cc1cc2oc(C(=O)Nc3nc(-c4ccc(S(=O)(=O)N5CCCC5)cc4)cs3)c(C)c2cc1C [CBK266309] | 141.386 |
| Cc1cc(NC(=O)c2cccc(C(F)(F)F)c2)nc2c1c(=O)oc1ccccc12 [CBK291163] | 141.686 |
| CC1CCN(Cc2ccc(-c3nnn(CC(=O)NCc4ccc(S(C)(=O)=O)cc4)n3)cc2)CC1 [CBK144152C] | 126.891 |
| Cc1nn(C)c(Cl)c1S(=O)(=O)Nc1cc(N2CCN(C(=O)OC(C)(C)C)CC2)c2occc2c1 [CBK067787] | 132.718 |
| CCOc1ccc(CN2CCNC(=O)C2CC(=O)O)cc1 (centres unmarked) [CBK269242] | 135.92 |
| O=C(Cn1c(C2CCCNC2)cc2cccnc21)N1CCCCCC1 (centres unmarked) [CBK285014] | 119.468 |
| O=C(O)CSc1nc2ccccc2n1CC(=O)O [CBK267128] | 137.808 |
| Cc1nc(NS(=O)(=O)c2ccc3ccccc3c2)sc1C(=O)O [CBK045548] | 76.8173 |
| O=S(=O)(Nc1nc2cc(Cl)ccc2o1)c1ccc(Oc2ccccc2)cc1 [CBK050499] | 100 |
| O=C1CC(N2CCC(c3nc4ccccc4o3)CC2)C(=O)N1Cc1cccs1 (centres unmarked) [CBK268735] | 136.956 |
| CCCCc1ccc(-c2nccn2CC2CN(C(C)=O)CCO2)s1 (centres unmarked) [CBK307600] | 98.8178 |
| O=C1c2ccc(Oc3ccc4c(c3)C(=O)N(c3ccncc3)C4=O)cc2C(=O)N1c1ccncc1 [CBK261399] | 100 |
| COC(=O)c1ccccc1NC(=O)CCSc1ccc(Cl)cc1 [CBK263817] | 79.2596 |
| COCc1ccc(C(=O)N2CCCC(c3cc4ncccc4[nH]3)C2)o1 (centres unmarked) [CBK282106] | 134.128 |
| Cc1ccc2[nH]c3c(c2c1)CCNC31CCN(CC2CCCCO2)CC1 (centres unmarked) [CBK039545] | 124.111 |
| C#CCNC(=O)[C@@H]1Cc2cn(Cc3nccn3C)c3cccc(c23)[C@H](CC(C)C)N1 [CBK289424] | 101.93 |
| COc1c(C)cccc1C(=O)NC(=S)Nc1sc2c(c1C(N)=O)CCC2 [CBK265587] | 118.947 |
| CCn1nc(C)c(-c2cncn2CCn2nc(C)c(Cl)c2C)c1C [CBK281768] | 140.742 |
| CCNc1cncc(-c2ccc(OC)cc2)n1 [CBK065370] | 183.479 |
| O=C(OCc1ccccc1)N1CCC(C2OCc3cc(-c4ccc(C(=O)N5CCCCC5)cc4)ccc3O2)CC1 (centres unmarked) [CBK153262] | 105.871 |
| Cc1ccc(F)c(S(=O)(=O)NC(C)Cc2ccccn2)c1 (centres unmarked) [CBK281427] | 107.797 |
| CCN(CC)CCN1C(=O)C(O)=C(C(=O)c2cc3ccccc3o2)C1c1ccccn1 (centres unmarked) [CBK266413] | 137.188 |
| O=C(CC1CCCCC1)Nc1snnc1-c1ccc(Cl)cc1 [CBK153245] | 103.294 |
| COc1cccc(OC)c1-c1cn2ccnc2c(NCCc2ccccn2)n1 [CBK066173] | 142.962 |
| O=C(CCCSC1=NC(C(F)(F)F)CC(c2ccco2)N1)Nc1ccc(Cl)c(Cl)c1 (centres unmarked) [CBK268858] | 139.89 |
